Record: PubChem BioAssay AID1508588 (Peter MacCallum Cancer Centre, 2020)
Assay: 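Knock-downs boosting vemurafenib effects on melanoma cell growth or lactate release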 (primary screen). Cell system: human WM266.4 melanoma cells (BRAF V600 mutant). Knock-down reagent: siRNA pool against human genes, 40 nM. Timing: 96 h from transfection to read-out. Conditions: vemurafenib 300 nM (about IC25), added 48 h after transfection, for 48 h; comparison arm got DMSO vehicle only. Read-out: 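Ratios to non-targeting siRNA for cell gain, counted as DAPI nuclei after minus before drug and averaged over two replicates, and for absorbance-read medium lactate per cell; both binned into fold-change classes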. Direction: cell gain with vemurafenib: higher = more cell gain than with non-targeting siRNA; lactate per cell with vemurafenib: higher = more lactate made per cell. Rule for the call: 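Enhancement is called by pairing each knock-down's vehicle-arm and drug-arm fold-change classes for viability or glycolysis; which class combinations qualify is not given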. Calls: active = enhances vemurafenib effect; inactive = no enhancement seen.
This is a random part of about 18,000 reagents. 790 of them (4.4%) count as active. 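Calls rest on a combination of fold-change classes in drug and vehicle arms, not all shown here.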 Reagent sequences are not shown.

KRT80 (keratin 80)
- cell gain with vemurafenib: 0.09
- lactate per cell with vemurafenib: 0.22
- call: inactive

KCTD20 (potassium channel tetramerization domain containing 20)
- cell gain with vemurafenib: 0.37
- lactate per cell with vemurafenib: 1.35
- call: inactive

KCTD21 (potassium channel tetramerization domain containing 21)
- cell gain with vemurafenib: 0.7
- lactate per cell with vemurafenib: 0.91
- call: inactive

EPX (eosinophil peroxidase)
- cell gain with vemurafenib: 0.85
- lactate per cell with vemurafenib: 0.92
- call: inactive

TSC22D4 (TSC22 domain family member 4)
- cell gain with vemurafenib: 0.73
- lactate per cell with vemurafenib: 0.62
- call: inactive

TTC39B (tetratricopeptide repeat domain 39B)
- cell gain with vemurafenib: 0.52
- lactate per cell with vemurafenib: 0.68
- call: inactive

SVBP (small vasohibin binding protein)
- cell gain with vemurafenib: 0.87
- lactate per cell with vemurafenib: 0.66
- call: inactive

DCAF12 (DDB1 and CUL4 associated factor 12)
- cell gain with vemurafenib: 0.65
- lactate per cell with vemurafenib: 1
- call: inactive

LRRC57 (leucine rich repeat containing 57)
- cell gain with vemurafenib: 0.89
- lactate per cell with vemurafenib: 0.98
- call: inactive

ZNF367 (zinc finger protein 367)
- cell gain with vemurafenib: 0.69
- lactate per cell with vemurafenib: 0.87
- call: inactive

MTCL1 (microtubule crosslinking factor 1)
- cell gain with vemurafenib: 1.07
- lactate per cell with vemurafenib: 1.03
- call: inactive

ZWINT (ZW10 interacting kinetochore protein)
- cell gain with vemurafenib: 0.56
- lactate per cell with vemurafenib: 2.43
- call: inactive

MED12L (mediator complex subunit 12L)
- cell gain with vemurafenib: 0.6
- lactate per cell with vemurafenib: 1.84
- call: inactive

CYRIB (CYFIP related Rac1 interactor B)
- cell gain with vemurafenib: 0.87
- lactate per cell with vemurafenib: 1.3
- call: inactive

ADAM17 (ADAM metallopeptidase domain 17)
- cell gain with vemurafenib: 0.85
- lactate per cell with vemurafenib: 0.84
- call: inactive

MYO1E (myosin IE)
- cell gain with vemurafenib: 0.58
- lactate per cell with vemurafenib: 0.64
- call: inactive

NKAIN4 (sodium/potassium transporting ATPase interacting 4)
- cell gain with vemurafenib: 0.6
- lactate per cell with vemurafenib: 0.68
- call: inactive

CRACR2A (calcium release activated channel regulator 2A)
- cell gain with vemurafenib: -0.01
- lactate per cell with vemurafenib: 4.17
- call: inactive

DEFA6 (defensin alpha 6)
- cell gain with vemurafenib: 0.61
- lactate per cell with vemurafenib: 1.75
- call: inactive

CCDC88A (coiled-coil and HOOK domain protein 88A)
- cell gain with vemurafenib: 0.46
- lactate per cell with vemurafenib: 1.37
- call: inactive

GGH (gamma-glutamyl hydrolase)
- cell gain with vemurafenib: 0.9
- lactate per cell with vemurafenib: 0.56
- call: inactive

KAT6A (lysine acetyltransferase 6A)
- cell gain with vemurafenib: 0.65
- lactate per cell with vemurafenib: 0.86
- call: inactive

MMP7 (matrix metallopeptidase 7)
- cell gain with vemurafenib: 0.8
- lactate per cell with vemurafenib: 1.21
- call: inactive

CLINT1 (clathrin interactor 1)
- cell gain with vemurafenib: 0.13
- lactate per cell with vemurafenib: 1.19
- call: inactive

FBXO39 (F-box protein 39)
- cell gain with vemurafenib: 0.92
- lactate per cell with vemurafenib: 0.36
- call: inactive

PCMTD2
- cell gain with vemurafenib: 0.86
- lactate per cell with vemurafenib: 0.74
- call: inactive

TMEM61 (transmembrane protein 61)
- cell gain with vemurafenib: 0.17
- lactate per cell with vemurafenib: 0.95
- call: inactive

An excerpt from the list above:
TTC39B (tetratricopeptide repeat domain 39B)
- cell gain with vemurafenib: 0.52
- lactate per cell with vemurafenib: 0.68
- call: inactive

SVBP (small vasohibin binding protein)
- cell gain with vemurafenib: 0.87
- lactate per cell with vemurafenib: 0.66
- call: inactive
